From PubChem BioAssay AID445 (National Center for Advancing Translational Sciences (NCATS), 2006)
Some of the results follow. The main result of the screen is listed elsewhere. These columns were measured beside it and carry no call. The list favours compounds with an active or inconclusive main result. The note in brackets gives the kind of curve behind each potency; many fits are weak.

Assay: IkB Signaling
Conditions: ABC-DLBCL IkBa-CBG/CBR dual luciferase ratio (green luciferase fused to IkBa over red control in OCI-Ly3 lymphoma cells), 4 h
Procedure, shortened: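 Curves were fitted separately to fusion (green), unfused (red) and ratio luminescence, then classed by r2, magnitude and activity. Cells: OCI-Ly3, 4 h compound plus doxycycline at 37C; 10 uM MG-132 defined full response.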

[1] = measured here: control luc red channel unless noted

Cc1c(Cl)cccc1-n1nc(C)c2c(C(=O)NCc3ccccc3)cc(C3CC3)nc21
AC50 [1]: 7.94 µM [falling, partial curve]

Cc1nc2c(-c3ccccc3)c(C)nn2c(C)c1CCC(=O)NCc1ccc(F)cc1
AC50 [1]: 20 µM [falling, single point]

Cn1c(=O)oc2cc(S(=O)(=O)Nc3ccccc3O)ccc21
AC50 [1]: 12.6 µM [falling, partial curve]

Cc1ccc(-c2cc(NC(=O)COc3ccc(Cl)cc3C)on2)cc1
AC50 [1]: 39.8 µM [falling, partial curve]

O=C(NCc1ccc(Cl)cc1)C1CCN(S(=O)(=O)Cc2ccccc2)CC1
AC50 [1]: 2.51 µM [falling, full curve]

COc1ccc(-c2cc(C(F)(F)F)nc(SCC(=O)N3CCC(C)CC3)n2)cc1
AC50 [1]: 0.0631 µM [falling, full curve, poor fit]

COc1cccc(/C=C/c2onc(C)c2S(=O)(=O)N2CCC(C(=O)N3CCC(C)CC3)CC2)c1
AC50 [1]: 25.1 µM [falling, partial curve]

Cc1cc2ccccc2n1-c1ccc(C(=O)N2CCC(C(=O)NCc3ccccc3Cl)CC2)s1
AC50 [1]: 15.8 µM [falling, partial curve, poor fit]

CC(CNC(=O)Cc1ccc(NC(=O)N2CCSc3ncccc32)cc1)c1ccccc1 (stereo not given)
AC50 [1]: 12.6 µM [falling, partial curve]

COc1ccc(-c2cn3c(n2)sc2cc(C(=O)Nc4cccc(OC)c4)ccc23)cc1
AC50 [1]: 12.6 µM [falling, partial curve]

Cc1ccccc1NCc1cccn1-c1nnc(N2CCC(C)CC2)s1
AC50 [1]: 39.8 µM [falling, single point]

CCOC(=O)C1=C(CN2CCN(c3ccccc3F)CC2)NC(=O)NC1c1ccc(Cl)cc1 (stereo not given)
AC50 [1]: 15.8 µM [falling, partial curve]

COc1ccc(N2CCN(C(CNC(=O)C(=O)NCCc3ccccc3)c3cccnc3)CC2)cc1 (stereo not given)
AC50 [1]: 31.6 µM [falling, single point]

O=S(=O)(c1cccc(-c2csc(-c3cccnc3)n2)c1)N1CCCCC1
AC50 [1]: 25.1 µM [falling, single point]

Cc1ccc(CN2CCC(CNC(=O)Nc3cccc(Cl)c3C)C2)cc1 (stereo not given)
AC50 [1]: 39.8 µM [falling, single point]

COc1ccc(C)cc1NC(=O)CSc1nc2ccccc2nc1N1CCOCC1
AC50 [1]: 39.8 µM [falling, partial curve]

O=C(COc1ccc(Cl)cc1)Nc1nnc2n1CCS2
AC50 [1]: 25.1 µM [rising, single point]

CCOCCCN(C(=O)Nc1ccc(Cl)cc1)C1CCN(C(C)=O)CC1
AC50 [1]: 0.316 µM [rising, partial curve]

Cc1c(CNC2CCCCCC2)c(C(=O)O)c(C)n1Cc1ccc(F)cc1Cl
AC50 [1]: 15.8 µM [falling, partial curve]

CC(C)NC(=O)c1cnc(N2CCN(c3ccccn3)CC2)c2ccccc12
AC50 [1]: 15.8 µM [falling, partial curve]

COc1cc(OC)cc(-c2nc(-c3cccc(C)c3)no2)c1
AC50 [1]: 0.0631 µM [rising, partial curve]

CCc1ccc(-n2c(=O)c3c4c(sc3n(Cc3ccc(C)cc3)c2=O)CCC4)cc1
AC50 [1]: 12.6 µM [falling, partial curve]

COc1ccc(CCNc2nccn(-c3ccc(C)c(C)c3)c2=O)cc1OC
AC50 [1]: 31.6 µM [falling, partial curve]

Cc1cc(C)cc(N2CC(c3nc(-c4cccc(Cl)c4)no3)CC2=O)c1 (stereo not given)
AC50 [1]: 25.1 µM [falling, single point]

O=C(CN(C(=O)CSc1nnc(COc2ccccc2)o1)c1ccc(F)cc1)NC1CCCCC1
AC50 [1]: 7.94 µM [falling, partial curve]

O=C1C(Nc2ccccc2)=CC(c2ccc(Br)cc2)N1c1ccccc1 (stereo not given)
AC50 [1]: 1.58 µM [falling, full curve]

Oc1oc(-c2ccco2)nc1C=Nc1ccccc1
AC50 [1]: 12.6 µM [falling, partial curve]

COc1ccc(CCNC(=O)C(=O)Nc2ccc(C)cc2)cc1OC
AC50 [1]: 20 µM [rising, single point]

C=CCSc1nc2c(c(=O)[nH]1)C(C(C)C)C(C#N)=C(N)O2 (stereo not given)
AC50 [1]: 20 µM [rising, partial curve]

O=S(=O)(NC1CC1)c1ccc(S(=O)(=O)N2CCCc3ccccc32)cc1
AC50 [1]: 39.8 µM [falling, single point]

COc1cc(-c2cccs2)cc(=O)c2c(C)oc(C)c12
AC50 [1]: 25.1 µM [falling, partial curve]

CC(C)(C)c1ccc(C(=O)Nc2cc(-c3nc4ccccc4o3)ccc2Cl)cc1
AC50 [1]: 10 µM [falling, partial curve]

CCCCn1c(=O)c2oc3ccccc3c2n(CC(=O)Nc2cccc(Cl)c2C)c1=O
AC50 [1]: 3.98 µM [rising, partial curve]

COc1ccc(CC(=O)Nc2cc(Cl)ccc2O)cc1
AC50 [1]: 20 µM [falling, partial curve]

COc1ccc(Cc2nc3ccc(C(=O)NCc4ccc(OC)cc4OC)cc3o2)cc1
AC50 [1]: 12.6 µM [falling, partial curve]

CCOC(=O)Cn1c(=O)oc2cc(S(=O)(=O)N3CCCC(C(=O)OCC)C3)ccc21 (stereo not given)
AC50 [1]: 10 µM [falling, partial curve]

Cc1ccc(Cn2c(SCc3ccc(C(=O)N4CCCCCC4)cc3)nc3ccncc32)cc1
AC50 [1]: 15.8 µM [falling, partial curve]

C=CCSc1nc2ccccc2n1Cc1nnc(-c2cccs2)o1
AC50 [1]: 0.1 µM [falling, full curve]

COc1ccc(-c2noc(CSc3nnc(C)n3-c3ccc(OC)cc3)n2)cc1
AC50 [1]: 39.8 µM [falling, single point]

CCOC(=O)Nc1ccc2c(c1)N(C(=O)CCN(C)C)c1ccccc1S2
AC50 [1]: 31.6 µM [falling, single point]

COC(=O)c1c(-c2cccs2)csc1NC(=O)COc1c(C)ccc(C)c1C
AC50 [1]: 39.8 µM [falling, single point]

CCCCCSc1nc2sc3c(c2c(=O)n1-c1ccccc1)CCN(C(C)=O)C3
AC50 [1]: 39.8 µM [falling, single point]

CCc1cccc(NC(=O)c2cc3c(=O)n(Cc4ccc(OC)cc4)ccc3nc2C)c1
AC50 [1]: 12.6 µM [falling, partial curve]

CCOC(=O)c1ccccc1NC(=O)c1ccc2c(=O)n3c(nc2c1)CCCCC3
AC50 [1]: 6.31 µM [rising, single point] [measured here: IkB-luc green channel]

CCCSc1nnc2c(n1)OC(c1sccc1C)Nc1ccccc1-2 (stereo not given)
AC50 [1]: 0.2 µM [rising, full curve]

Cc1ccc(N2C(=O)N(CC(=O)C(C)(C)C)c3ccccc3S2(=O)=O)cc1C
AC50 [1]: 0.0158 µM [rising, full curve, poor fit]

CCOc1ccc(CCNC(=O)c2ccc(Nc3nc4ccccc4n4nnnc34)cc2)cc1OCC
AC50 [1]: 2.51 µM [falling, full curve]

O=C(CSc1nccc2ccccc12)N1CCN(c2ccccn2)CC1
AC50 [1]: 20 µM [falling, partial curve]

O=C(Cc1cc(=O)[nH]c(=O)[nH]1)N1CCN(C(=O)c2ccco2)CC1
AC50 [1]: 0.501 µM [falling, full curve]

Cc1cc2oc(C(=O)N(Cc3ccccc3F)C3CCS(=O)(=O)C3)c(C)c2cc1Cl (stereo not given)
AC50 [1]: 31.6 µM [falling, single point]

Cc1ccc(OC[C@H](O)[C@H](C)NC(C)C)c2c1CCC2
AC50 [1]: 39.8 µM [falling, partial curve, poor fit]

Cc1ccc(C2CC(=O)Nc3cc4c(cc32)OCCO4)cc1 (stereo not given)
AC50 [1]: 15.8 µM [falling, single point]

CC1Cc2ccccc2N1C(=O)COc1cccc(-n2cnnn2)c1 (stereo not given)
AC50 [1]: 39.8 µM [falling, single point]

CCOc1ccc(C(=O)c2oc3ccccc3c2NC(=O)Cc2coc3cc(C)cc(C)c23)cc1
AC50 [1]: 3.98 µM [rising, single point]

COc1ccccc1-c1cc(C(=O)Nc2ccc(F)cc2F)no1
AC50 [1]: 3.16e-05 µM [falling, full curve]

CCOc1ccccc1N1CCN(C(=O)c2cccc(-c3ccc(O)cc3)c2)CC1
AC50 [1]: 20 µM [falling, partial curve]

CCCCOC(=O)c1ccc(NC(=O)Cn2nnc3sc4c(c3c2=O)CCCC4)cc1
AC50 [1]: 39.8 µM [falling, single point]

CC[C@@H](C)[C@H](NC(=O)OC(C)(C)C)c1nnc(S(=O)(=O)Cc2cc(C)ccc2C)o1
AC50 (measured here: IkB-luc green channel): 6.31 µM [rising, single point]
AC50 (measured here: control luc red channel): 10 µM [falling, partial curve]

CCC(=O)N1CCc2cc(S(=O)(=O)CCC(=O)NCc3ccc(C)cc3)ccc21
AC50 [1]: 39.8 µM [rising, single point]

CCc1nc2oc3ccccc3c(=O)c2c(=O)n1-c1ccccc1
AC50 [1]: 0.0501 µM [falling, full curve]

CCc1cccc(NC(=O)C(Cc2ccccc2)NS(=O)(=O)c2ccc3c(c2)oc(=O)n3C)c1 (stereo not given)
AC50 [1]: 25.1 µM [falling, partial curve]

Cc1ccc(C2=CC(c3ccccc3F)n3c(nc4ccccc43)N2)cc1C (stereo not given)
AC50 [1]: 0.1 µM [falling, full curve]

Nc1ccccc1NC1=CC(=O)CC(c2ccco2)C1 (stereo not given)
AC50 [1]: 10 µM [falling, partial curve]

CN(C)c1ccc(-n2c(CCC(=O)O)ccc2-c2ccccc2)cc1
AC50 [1]: 25.1 µM [falling, partial curve]
